Measured values from patent US20090004163.
Construct, isoform or probe ends are uncertain for at least one entry.

Amino acid sequences for entries named in this document (tags omitted).
UniProt A8KBT9, entry or part of it: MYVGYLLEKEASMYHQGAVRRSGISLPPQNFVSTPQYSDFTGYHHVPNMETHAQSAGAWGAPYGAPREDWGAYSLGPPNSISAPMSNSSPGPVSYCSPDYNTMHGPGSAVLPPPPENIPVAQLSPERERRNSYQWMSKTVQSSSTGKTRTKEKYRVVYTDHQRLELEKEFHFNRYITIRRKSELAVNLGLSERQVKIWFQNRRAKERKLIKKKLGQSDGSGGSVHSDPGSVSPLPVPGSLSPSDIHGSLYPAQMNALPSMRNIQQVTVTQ

Target: Cdx4 (Danio rerio) (UniProt A8KBT9)
Experiment: EMSA
Conditions: wild-type binding implied by statement that F170L prevents binding; gel not shown in text; protein translated in vitro

GAGAAATTTATATTGT (double strand) [consensus cdx binding site probe]
binding result: binds
